{"source": "patent US6436660B1", "about": "“Identification of novel antimicrobial agents using metabolic oxidation-reduction indicator dyes” (XOMA Technology Ltd., priority 1999, dated 2002)", "system": "E. coli (ATCC strain 8739)", "experiment": "Effect of antibacterial compounds on bacteria with Alamar Blue (colorimetric OD595 assay)", "type": "cell-based"}
{"smiles": "O=C(O)c1cn(C2CC2)c2cc(N3CCNCC3)c(F)cc2c1=O", "note": "[ciprofloxacin]", "values": [{"measurement": "characteristic pattern or \"fingerprint\": increased metabolic oxidation-reduction activity (Alamar Blue OD595) relative to untreated control cells", "setting": "E. coli 5x10^7/mL, test compound two-fold dilutions from 64 μg/mL, readings 0-120 min, best seen at 30 min (FIG. 6)", "value": "did not show the “fingerprint.”"}, {"measurement": "characteristic \"fingerprint\" with metabolic oxidation-reduction indicator dye (statement on negative controls)", "setting": "for bacteria, summary statement", "value": "do not exhibit the characteristic “fingerprint,”"}]}
